Among all 330,000 compounds or so, about 7,700 (2.3%) were called active. The inconclusive results got no clear call from the source; some entries with a clear call stand among them for comparison. The call rests on the fitted dose curve; in most records, active means well fitted inhibition curve with a large enough effect; inconclusive means small, poorly fitted or top-dose-only effect, or effect the other way; inactive means flat fitted curve, though single readings scatter. Where the call is inconclusive, the potency comes from a doubtful curve fit.
Assay: qHTS screen for small molecules that inhibit ELG1-dependent DNA repair in human embryonic kidney (HEK293T) cells expressing luciferase-tagged ELG1; further: nearly all actives have a fitted effect of over 55% in size
Settings: HEK293T ELG1-luciferase reporter, luminescence, 16 h, DNA damage induced by 5-fluorouridine; activity change, negative = inhibition: at 46.1 µM (top of the series)
Summary of the method: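 DMSO vehicle served as the neutral condition. Each well held 2,000 cells given 5-fluorouridine plus compound; after 16 hr at 37 °C/5% CO2, ONE-Glo was added and luciferase measured 30 min later.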
On the % scale 0 is the no-effect control and ±100 the full control effect; potency means the concentration at half of the fitted maximal effect.

Compound | activity change, negative = inhibition | Potency
Cc1ccc(CNC(=O)CCCc2nc3ccccc3s2)cc1 | inactive: 6.78% | 
COc1ccc(/C=N/NC(=O)C(=O)/C=C2\NC3(CCCC3)Cc3ccccc32)cc1 |  | active: 23.1 µM
Brc1ccc(/C=N/Nc2ccccn2)cc1 |  | inconclusive: 11.6 µM [activator, partial curve]
Cc1ccc(NC(=O)c2ccc3nc(N4CCOCC4)sc3c2)c(Cl)c1 |  | inconclusive: 13 µM [activator, single point]
O=C(c1ccccc1C(F)(F)F)N1CCN(S(=O)(=O)c2ccccc2)CC1 |  | active: 20.6 µM
CN1CC2(Cc3c1ccc1ccccc31)C(=O)OC(C)(C)OC2=O |  | inconclusive: 23.1 µM [inhibitor, single point]
COc1ccc(CCN2CC(C(=O)N(C)Cc3cccnc3)CC2=O)cc1OC (stereo not drawn) |  | inconclusive: 29.1 µM [activator, partial curve, poor fit]
O=C(c1ccc(Oc2ccc(C(F)(F)F)cc2[N+](=O)[O-])cc1)N1CCOCC1 | inactive: 2.96% | 
Cc1ccc(O)c(C2=Nc3ccccc3N=C(c3ccc([N+](=O)[O-])cc3)C2)c1 |  | inconclusive: 25.9 µM [activator, partial curve, poor fit]
O=C(Nc1cc(S(=O)(=O)N2CCOCC2)ccc1N1CCOCC1)c1ccc(Cl)nc1 | inactive: -5.03% | 
CSc1nc2sc3c(c2c(=O)n1C)CCCC3 |  | inconclusive: 18.4 µM [activator, partial curve]
Cc1ccc(C(=O)c2c3ccc(C(F)(F)F)cc3[n+]([O-])n2CCCN)cc1 |  | inconclusive: 22.4 µM [activator, single point]
COc1ccc(C(=O)COC(=O)CCN2C(=O)C3C4C=CC(C5CC45)C3C2=O)cc1 (stereo not drawn) | inactive: 2.02% | 
CC(C)(C)OC(=O)NCCCC[C@@H](C(=O)NCCCCCCCCCCC(=O)N1CCN(C(=O)OC(C)(C)C)CC1)n1cc(CCO)nn1 |  | inconclusive: 31.6 µM [inhibitor, single point]
Cc1cc(C(=O)Nc2c(C)nn(Cc3ccc(Cl)cc3)c2C)no1 |  | inconclusive: 16.4 µM [inhibitor, partial curve]
CCOC(=O)C(=CNNc1c(C)csc1C(=O)OC)C(=O)OCC | inactive: -22.3% | 
O=C(CSc1ncnc2c1cnn2-c1ccccc1)NC1CCCC1 |  | inconclusive: 11.6 µM [inhibitor, single point]
Cc1ccc2oc(-c3ccccc3)c(C(=O)O)c(=O)c2c1 |  | inconclusive: 4.11 µM [activator, full curve]
c1ccc(COc2ccc(CNn3cnnc3)cc2)cc1 |  | inconclusive: 29.1 µM [activator, single point]
CCOC(=O)c1cccc(C(=O)Nc2nc3ccc(OC)cc3s2)n1 |  | inconclusive: 4.61 µM [activator, partial curve]
COCc1ccc(CN2CCc3c([nH]c4ccccc34)C2CC(C)C)o1 (stereo not drawn) | inactive: 1.84% | 
COc1cc(-c2nnc(COc3ccc(Cl)cc3C)o2)cc(OC)c1OC |  | inconclusive: 18.4 µM [inhibitor, single point]
CN(c1ccccc1)S(=O)(=O)c1cccc(NC(=O)c2ccc(=O)[nH]n2)c1 |  | inconclusive: 5.17 µM [inhibitor, single point]

Compound | activity change, negative = inhibition | Potency
Cc1ccnc(NC(=O)c2ccc(Cl)c(S(=O)(=O)N3CCCCC3)c2)c1 | inactive: 3.43% | 
CCc1sc(C(=O)NNC(=O)c2cncc(Br)c2)cc1C | inactive: -5.29% | 
Cc1cccc(NC(=O)CN2C(=O)S/C(=C\c3ccc(-c4cccc(C(=O)O)c4C)o3)C2=O)c1 | inactive: -1.6% | 
Cc1cccc(-c2ocnc2C(=O)Nc2ccccc2C(=O)N2CCCC2)c1 |  | inconclusive: 29.1 µM [inhibitor, single point]
CCOC(=O)/C=c1\s/c(=C\c2ccc3cc(OC)ccc3c2)c(=O)n1CC(=O)NCc1ccc2c(c1)OCO2 |  | inconclusive: 3.26 µM [activator, single point]
Cc1cc(C)c(C(=O)/C=C/c2ccc(C(C)C)cc2)c(=O)[nH]1 |  | active: 20.6 µM
CC1(C)Oc2ccc3ccc(=O)oc3c2/C(=C/Nc2ccccn2)C1=O |  | inconclusive: 7.94 µM [inhibitor, partial curve, poor fit]
CCc1nc(SCC(=O)c2ccccc2)c2c(=O)n(C)c(=O)n(C)c2n1 | inactive: -25.8% | 
O=C(N/N=C/c1cc(Cl)ccc1O)c1ccccc1Br |  | inconclusive: 20.6 µM [inhibitor, single point]
Cn1c(=O)c2c(nc(NCc3ccc4c(c3)OCO4)n2C)n(C)c1=O | inactive: 3.8% | 
O=C(Cn1nnc(-c2cccc(C(F)(F)F)c2)n1)N1CCOCC1 | inactive: 9.72% | 
CCOC(=O)c1[nH]c2cc3c(cc2c1NC(=O)CN1CCCCC1C)OCO3 (stereo not drawn) |  | inconclusive: 25.9 µM [inhibitor, partial curve, poor fit]
CC[C@@H](C(=O)[C@@H](C)[C@@H](O)[C@H](C)CCc1ccc(C)c(O)c1C(=O)O)[C@H]1O[C@](CC)([C@H]2CC[C@](O)(CC)[C@H](C)O2)C[C@@H]1C |  | inconclusive: 25.9 µM [inhibitor, single point]
COc1ccc(S(=O)(=O)N2CCC(C(=O)N(CC(C)C)C3CCS(=O)(=O)C3)CC2)cc1OC (stereo not drawn) |  | inconclusive: 16.4 µM [activator, single point]
C(=N\c1nc2ccccc2n1Cc1ccccc1)/c1cccs1 |  | inconclusive: 23.1 µM [inhibitor, partial curve, poor fit]
CSc1ccccc1NC(=S)N/N=C/c1cccn1Cc1ccc(F)cc1 |  | inconclusive: 8.2 µM [inhibitor, partial curve]
Cc1ccc(C(=O)COC(=O)c2ccc(O)cc2)cc1 |  | inconclusive: 29.1 µM [activator, single point]
O=C(N/N=C/c1ccc2c(c1)OCO2)c1cccc(NC(=O)c2ccccc2Cl)c1 |  | inconclusive: 2.59 µM [activator, full curve, poor fit]
CN(C(=O)CCc1ccccc1)c1nnc(-c2ccncc2)s1 |  | inconclusive: 29.1 µM [inhibitor, single point]
COC(=O)c1cn[nH]c1NC(=S)Nc1ccccc1C |  | inconclusive: 16.4 µM [activator, partial curve]
CCN(CC)c1ccc2cc(C(=O)Nc3cccnc3N3CCOCC3)c(=O)oc2c1 | inactive: 2.15% | 
CC(=O)c1sc(NC(=O)c2ccc(C)cc2)nc1C |  | inconclusive: 3.16 µM [activator, partial curve]
COC(=O)c1ccc(C(=O)NC(=S)Nc2nc3c(s2)CC(C)CC3)cc1 (stereo not drawn) |  | inconclusive: 13 µM [activator, partial curve]

Compound | activity change, negative = inhibition | Potency
O=C(Nc1cc(F)ccc1F)N1CCN(c2ccnc3cc(Cl)ccc23)CC1 |  | inconclusive: 25.9 µM [inhibitor, single point]
CCOc1cccc2sc(N(CCN(CC)CC)C(=O)c3ccc(S(=O)(=O)N4CCCC4)cc3)nc12 | inactive: -9.49% | 
O=C(CSc1nnc(NC(=O)c2ccccc2[N+](=O)[O-])s1)NCC1CCCO1 (stereo not drawn) |  | inconclusive: 4.61 µM [inhibitor, single point]
Cc1cc(=O)oc2cc(OCC(=O)Nc3ccc4[nH]c(=O)[nH]c4c3)ccc12 | inactive: 13.8% | 
O=C(N/N=C/c1ccccn1)c1ccccc1 |  | inconclusive: 10.3 µM [activator, partial curve]
Cc1ccc(NC(=S)NCc2ccccc2)cc1[N+](=O)[O-] | inactive: 0.719% | 
Cc1ccc(OC(C)C(=O)Nc2ccccc2C(=O)NCc2cccnc2)cc1C (stereo not drawn) |  | inconclusive: 23.1 µM [inhibitor, partial curve]
Cc1ccccc1C(=O)N1CCN(c2ccc(NC(=O)c3ccc4c(c3)OCO4)cc2)CC1 |  | active: 5.8 µM
O=C(Nc1nnc(S(=O)(=O)N2CCOCC2)s1)c1cccc(F)c1 |  | inconclusive: 16.4 µM [activator, partial curve]
CSc1nc(N)nc2c1ncn2CC(=O)NCC(c1ccccc1)c1ccccc1 |  | inconclusive: 23.1 µM [inhibitor, partial curve, poor fit]
CCC1(c2ccc(OC)cc2)NC(=O)N(CC(=O)c2ccc3c(c2)OCCO3)C1=O (stereo not drawn) |  | inconclusive: 10.3 µM [inhibitor, partial curve, poor fit]
Cc1ccc2nc(SCC(=O)c3ccc(O)cc3O)[nH]c2c1 |  | inconclusive: 13 µM [activator, partial curve]
C=CCNc1nc(-c2cc3ccccc3o2)cs1 |  | inconclusive: 0.58 µM [activator, full curve]
CCN(CC)CCC(=O)N1c2ccccc2Sc2ccc(NC(=O)OC)cc21 | inactive: 8.71% | 
COCc1ccc(C(=O)N2CCCC(N(C)Cc3ccccc3)C2)s1 (stereo not drawn) |  | inconclusive: 32.6 µM [activator, partial curve, poor fit]
COC(=O)c1ccc(N2CCN(S(=O)(=O)c3c(C)cc(C)cc3C)CC2)c([N+](=O)[O-])c1 |  | inconclusive: 32.6 µM [inhibitor, partial curve, poor fit]
CC(C)NC(=O)C(c1ccc(F)cc1)N(C(=O)CCC(=O)Nc1ccccn1)C1CCCCC1 (stereo not drawn) | inactive: 9.64% | 
COc1cc(SC)ccc1C(=O)Nc1ncc(Cl)cc1Cl |  | inconclusive: 18.3 µM [activator, partial curve]
O=C(Cn1nc(C(=O)O)c2ccccc2c1=O)c1c[nH]c2ccccc12 | inactive: 2.65% | 
C=CCNC(=S)NN=C1CCC(c2ccccc2)CC1 (stereo not drawn) | inactive: 2.32% | 
O=C(Nc1ccccc1)c1nn(-c2ccccc2)c(=O)cc1C(F)(F)F | inactive: 5.55% | 
O=C(CSc1nnc(-c2ccccc2O)o1)N1CCc2ccccc2C1 | inactive: -29.2% | 

Quoted at random: 3 records from the list.
Compound | activity change, negative = inhibition | Potency
O=C(Nc1nnc(S(=O)(=O)N2CCOCC2)s1)c1cccc(F)c1 |  | inconclusive: 16.4 µM [activator, partial curve]
C=CCNc1nc(-c2cc3ccccc3o2)cs1 |  | inconclusive: 0.58 µM [activator, full curve]
Cc1cc(=O)oc2cc(OCC(=O)Nc3ccc4[nH]c(=O)[nH]c4c3)ccc12 | inactive: 13.8% | 
